Assay results: patent US8957058B2, “Insecticidal pyrrolidin-yl-aryl-carboxamides” (Syngenta Participations AG, priority 2010, dated 2015)
Some results were stated once for a whole list of compounds, not compound by compound.

Test system: Tetranychus urticae (Two-Spotted Spider Mite)
Experiment: Tetranychus urticae bean leaf disc spray test
Assay type: in vivo
Conditions: application rate 200 ppm; mixed ages; checked 8 days later
Excerpt: […] After drying, the leaf discs are infested with mite populations of mixed ages. 8 days later, discs are checked for egg mortality, larval mortality, and adult mortality. […] After drying, the leaf discs are infested with mite populations of mixed ages. 8 days later, discs are checked for egg mortality, larval mortality, and adult mortality.

Cc1cc(N2CCC(c3cc(Cl)cc(Cl)c3)(C(F)(F)F)C2)ccc1C(=O)NCC1CCS1 (mixture of isomers) [Compound A8]
control of Tetranychus urticae: at least 80%

Cc1cc(N2CCC(c3cc(Cl)cc(Cl)c3)(C(F)(F)F)C2)ccc1C(=O)NCC1CC[S+]1[O-] (mixture of isomers) [Compound A9]
control of Tetranychus urticae: at least 80%

Cc1cc(N2CCC(c3cc(Cl)cc(Cl)c3)(C(F)(F)F)C2)ccc1C(=O)NCC1CCS1(=O)=O (mixture of isomers) [Compound A10]
control of Tetranychus urticae: at least 80%

Cc1nc(N2CCC(c3cc(Cl)cc(Cl)c3)(C(F)(F)F)C2)ccc1C(=O)NCC1CCS1 (mixture of isomers) [Compound B7]
control of Tetranychus urticae: at least 80%

Cc1nc(N2CCC(c3cc(Cl)cc(Cl)c3)(C(F)(F)F)C2)ccc1C(=O)NCC1CC[S+]1[O-] (mixture of isomers) [Compound B8]
control of Tetranychus urticae: at least 80%

Cc1nc(N2CCC(c3cc(Cl)cc(Cl)c3)(C(F)(F)F)C2)ccc1C(=O)NCC1CCS1(=O)=O (mixture of isomers) [Compound B9]
control of Tetranychus urticae: at least 80%

Cc1cc(N2CCC(c3cc(Cl)cc(Cl)c3)(C(F)(F)F)C2)ncc1C(=O)NCC1CCS1 (mixture of isomers) [Compound C7]
control of Tetranychus urticae: at least 80%

COc1c(Cl)cc(C2(C(F)(F)F)CCN(c3ccc(C(=O)NC4CS(=O)(=O)C4)c(C)c3)C2)cc1Cl (racemic) [Compound A2]
control of Tetranychus urticae: at least 80%

Cc1cc(N2CCC(c3cc(Cl)c(F)c(Cl)c3)(C(F)(F)F)C2)ccc1C(=O)NC1CS(=O)(=O)C1 (racemic) [Compound A3]
control of Tetranychus urticae: at least 80%

Cc1cc(N2CCC(c3cc(Cl)cc(Cl)c3)(C(F)(F)F)C2)ccc1C(=O)NC1(C)CSC1 (racemic) [Compound A6]
control of Tetranychus urticae: at least 80%

Cc1cc(N2CCC(c3cc(Cl)cc(Cl)c3)(C(F)(F)F)C2)ccc1C(=O)NCC1CSC1 (racemic) [Compound A7]
control of Tetranychus urticae: at least 80%

Cc1cc(N2CCC(c3cc(Cl)cc(Cl)c3)(C(F)(F)F)C2)ccc1C(=O)NCCC1CSC1 (racemic) [Compound A11]
control of Tetranychus urticae: at least 80%

Cc1cc(N2CCC(c3cc(Cl)cc(Cl)c3)(C(F)(F)F)C2)ccc1C(=O)NCCC1CS(=O)(=O)C1 (racemic) [Compound A12]
control of Tetranychus urticae: at least 80%

Cc1cc(N2CCC(c3cc(Cl)cc(Cl)c3)(C(F)(F)F)C2)ccc1C(=O)NC1CC(=NOCC(F)(F)F)C1 (racemic) [Compound A13]
control of Tetranychus urticae: at least 80%

Cc1nc(N2CCC(c3cc(Cl)cc(Cl)c3)(C(F)(F)F)C2)ccc1C(=O)NC1CSC1 (racemic) [Compound B1]
control of Tetranychus urticae: at least 80%

Cc1nc(N2CCC(c3cc(Cl)cc(Cl)c3)(C(F)(F)F)C2)ccc1C(=O)NC1C[S+]([O-])C1 (racemic) [Compound B2]
control of Tetranychus urticae: at least 80%

Cc1nc(N2CCC(c3cc(Cl)cc(Cl)c3)(C(F)(F)F)C2)ccc1C(=O)NC1CS(=O)(=O)C1 (racemic) [Compound B3]
control of Tetranychus urticae: at least 80%

Cc1nc(N2CCC(c3cc(Cl)cc(Cl)c3)(C(F)(F)F)C2)ccc1C(=O)NC1(C)CSC1 (racemic) [Compound B4]
control of Tetranychus urticae: at least 80%

Cc1nc(N2CCC(c3cc(Cl)cc(Cl)c3)(C(F)(F)F)C2)ccc1C(=O)NCC1CSC1 (racemic) [Compound B5]
control of Tetranychus urticae: at least 80%

Cc1nc(N2CCC(c3cc(Cl)cc(Cl)c3)(C(F)(F)F)C2)ccc1C(=O)NC1CC(=NOCC(F)(F)F)C1 (racemic) [Compound B6]
control of Tetranychus urticae: at least 80%

Cc1nc(N2CCC(c3cc(Cl)cc(Cl)c3)(C(F)(F)F)C2)ccc1C(=O)NCCC1CSC1 (racemic) [Compound B10]
control of Tetranychus urticae: at least 80%

Cc1nc(N2CCC(c3cc(Cl)cc(Cl)c3)(C(F)(F)F)C2)ccc1C(=O)NCCC1CS(=O)(=O)C1 (racemic) [Compound B11]
control of Tetranychus urticae: at least 80%

Cc1cc(N2CCC(c3cc(Cl)cc(Cl)c3)(C(F)(F)F)C2)ncc1C(=O)NC1CSC1 (racemic) [Compound C1]
control of Tetranychus urticae: at least 80%

Cc1cc(N2CCC(c3cc(Cl)cc(Cl)c3)(C(F)(F)F)C2)ncc1C(=O)NC1C[S+]([O-])C1 (racemic) [Compound C2]
control of Tetranychus urticae: at least 80%

Cc1cc(N2CCC(c3cc(Cl)cc(Cl)c3)(C(F)(F)F)C2)ncc1C(=O)NC1CS(=O)(=O)C1 (racemic) [Compound C3]
control of Tetranychus urticae: at least 80%

Cc1cc(N2CCC(c3cc(Cl)cc(Cl)c3)(C(F)(F)F)C2)ncc1C(=O)NC1(C)CSC1 (racemic) [Compound C4]
control of Tetranychus urticae: at least 80%

Cc1cc(N2CCC(c3cc(Cl)cc(Cl)c3)(C(F)(F)F)C2)ncc1C(=O)NCC1CSC1 (racemic) [Compound C5]
control of Tetranychus urticae: at least 80%

Cc1cc(N2CCC(c3cc(Cl)cc(Cl)c3)(C(F)(F)F)C2)ccc1C(=O)NC1C[S+]([O-])C1 (stereo not shown) [Compound A1]
control of Tetranychus urticae: at least 80%

Cc1cc(N2CCC(c3cc(Cl)cc(Cl)c3)(C(F)(F)F)C2)ccc1C(=O)NC1CSC1 (stereo not shown) [Compound A4]
control of Tetranychus urticae: at least 80%

Cc1cc(N2CCC(c3cc(Cl)cc(Cl)c3)(C(F)(F)F)C2)ccc1C(=O)NC1CS(=O)(=O)C1 (stereo not shown) [Compound A5]
control of Tetranychus urticae: at least 80%

Cc1cc(N2CCC(c3cc(Cl)cc(Cl)c3)(C(F)(F)F)C2)ncc1C(=O)NCC1CCS1(=O)=O (stereo not shown) [Compound C9]
control of Tetranychus urticae: at least 80%
